Assay [1] has as its target Recombinant N‐WASP (UniProt O00401). Description: pull-down; in vitro; anti‐N‐WASP antibody in 'the indicated system' with VAPA, WIP and N‐WASP; the legend calls it in vitro co‐IP (Figure 6C).
The target of assay [2] is T1, VAPA (construct and source not stated) (UniProt Q9P0L0).
T1 sequence: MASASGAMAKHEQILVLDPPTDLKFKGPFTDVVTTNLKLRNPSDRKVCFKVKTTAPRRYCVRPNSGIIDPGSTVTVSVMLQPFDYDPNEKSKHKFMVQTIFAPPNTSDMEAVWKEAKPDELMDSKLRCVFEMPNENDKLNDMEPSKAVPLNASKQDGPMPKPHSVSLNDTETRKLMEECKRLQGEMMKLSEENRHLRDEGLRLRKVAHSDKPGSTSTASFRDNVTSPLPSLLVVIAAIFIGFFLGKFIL
Briefly: co-IP; serially truncated VAPA fragments and αV‐integrin (Figure S2D); cells not shown.

By UniProt entry, the sequences of proteins in these tests, tags left out. Residues count along the entry.
UniProt O00401: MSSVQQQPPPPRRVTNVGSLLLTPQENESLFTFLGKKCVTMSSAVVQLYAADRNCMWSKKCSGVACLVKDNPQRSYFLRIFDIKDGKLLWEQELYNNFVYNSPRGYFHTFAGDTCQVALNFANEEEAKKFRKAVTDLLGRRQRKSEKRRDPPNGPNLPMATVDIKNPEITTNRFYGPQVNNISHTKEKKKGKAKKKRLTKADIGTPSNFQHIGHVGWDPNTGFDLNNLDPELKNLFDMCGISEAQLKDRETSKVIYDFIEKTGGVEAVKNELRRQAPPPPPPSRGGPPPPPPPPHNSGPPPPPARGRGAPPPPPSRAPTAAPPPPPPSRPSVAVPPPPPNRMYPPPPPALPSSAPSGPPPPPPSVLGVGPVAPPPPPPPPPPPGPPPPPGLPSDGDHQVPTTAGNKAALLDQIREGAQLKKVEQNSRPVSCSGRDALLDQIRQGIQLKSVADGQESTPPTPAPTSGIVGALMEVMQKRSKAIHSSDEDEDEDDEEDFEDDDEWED
UniProt O43516: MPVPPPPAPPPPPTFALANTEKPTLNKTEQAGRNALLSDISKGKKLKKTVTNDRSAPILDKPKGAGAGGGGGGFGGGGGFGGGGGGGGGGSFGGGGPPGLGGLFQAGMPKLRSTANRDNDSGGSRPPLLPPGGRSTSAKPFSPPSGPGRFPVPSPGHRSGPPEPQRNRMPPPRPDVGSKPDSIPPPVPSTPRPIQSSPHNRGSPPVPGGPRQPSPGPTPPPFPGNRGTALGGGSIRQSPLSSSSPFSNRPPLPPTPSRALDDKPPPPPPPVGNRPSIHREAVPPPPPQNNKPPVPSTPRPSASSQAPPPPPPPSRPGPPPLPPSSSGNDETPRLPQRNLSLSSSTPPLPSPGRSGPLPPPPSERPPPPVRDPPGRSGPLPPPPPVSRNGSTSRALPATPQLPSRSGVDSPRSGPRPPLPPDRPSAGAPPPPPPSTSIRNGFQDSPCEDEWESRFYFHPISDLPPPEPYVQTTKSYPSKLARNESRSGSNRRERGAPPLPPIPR
UniProt P06756, residues 31-1048: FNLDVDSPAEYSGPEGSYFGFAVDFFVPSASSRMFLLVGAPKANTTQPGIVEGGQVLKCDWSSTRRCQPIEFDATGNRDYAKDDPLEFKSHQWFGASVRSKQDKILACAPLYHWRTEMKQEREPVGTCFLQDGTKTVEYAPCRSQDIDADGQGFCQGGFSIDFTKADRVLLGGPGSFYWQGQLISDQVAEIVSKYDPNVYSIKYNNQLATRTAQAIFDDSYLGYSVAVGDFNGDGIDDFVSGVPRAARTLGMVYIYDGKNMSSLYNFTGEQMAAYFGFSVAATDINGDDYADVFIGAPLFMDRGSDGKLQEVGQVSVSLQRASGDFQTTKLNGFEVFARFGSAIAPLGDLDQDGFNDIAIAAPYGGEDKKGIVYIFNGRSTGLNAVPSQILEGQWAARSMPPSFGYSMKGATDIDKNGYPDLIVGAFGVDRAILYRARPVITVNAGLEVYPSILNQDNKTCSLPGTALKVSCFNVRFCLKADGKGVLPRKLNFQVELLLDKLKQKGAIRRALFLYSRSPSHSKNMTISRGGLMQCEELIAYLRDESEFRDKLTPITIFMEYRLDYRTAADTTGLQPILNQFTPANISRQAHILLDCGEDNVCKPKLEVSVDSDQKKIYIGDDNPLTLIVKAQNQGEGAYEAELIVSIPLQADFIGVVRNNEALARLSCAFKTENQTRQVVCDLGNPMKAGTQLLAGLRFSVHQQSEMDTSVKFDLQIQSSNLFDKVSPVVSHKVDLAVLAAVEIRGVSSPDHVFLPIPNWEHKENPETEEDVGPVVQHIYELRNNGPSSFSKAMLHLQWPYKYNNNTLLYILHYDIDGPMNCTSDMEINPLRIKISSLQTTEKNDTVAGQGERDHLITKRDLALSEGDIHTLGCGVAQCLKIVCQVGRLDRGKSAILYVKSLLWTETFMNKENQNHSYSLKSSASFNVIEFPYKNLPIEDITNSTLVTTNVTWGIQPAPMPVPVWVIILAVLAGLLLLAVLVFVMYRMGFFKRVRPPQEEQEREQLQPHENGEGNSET

Assay [3] addresses T1, VAPA (construct and source not stated). Briefly: far-Western, overlay or dot blot; far‐western blotting of VAPA and αV‐integrin (Figure S2B); format not shown.
Assay [4] shares this target. Description: co-IP; serially truncated N‐WASP fragments (anti‐VAPA antibody, Figure 5F) and VAPA fragments (anti‐N‐WASP antibody, Figure 5G) in the indicated cells.
The target in assay [5] is T2, VAPA immunoprecipitated with anti‐myc antibody (UniProt Q9P0L0).
T2 sequence: T1 sequence
Briefly: far-Western, overlay or dot blot; anti‐myc antibody‐immunoprecipitated proteins on the blot, detected with anti‐N‐WASP antibody, re‐blotted with anti‐VAPA antibody; recombinant N‐WASP as control (Figure 5C).

For assay [6], the target named is neural Wiskott–Aldrich syndrome protein (human (endogenous in pre‐osteoclasts)) (UniProt O00401). Description: co-IP; anti‐N‐WASP antibody, membrane of pre‐osteoclasts treated with LOs derived from Hep3B/vector or Hep3B/Flag‐VAPA cells (Hep3B transfected with 0, 1, 2 and 10 µg Flag‐VAPA plasmids) (Figure 6B, 6J).
The target of assay [7] is T3, VAMP‐associated protein A (human (endogenous in HCCLM3‐BM4)) (UniProt Q9P0L0).
T3 sequence: T1 sequence
Description: co-IP; anti‐VAPA antibody (anti‐IgG as control), membrane of pre‐osteoclasts treated with LOs derived from HCCLM3‐BM4 cells; also with ARP2 or ARP3 knocked down (Figure 5A, 5D).

These are yes or no findings as the source states them, for the method shown. For some of these results: In cells and extracts the contact can be indirect. Some binding calls cover weakened binding; strength is not graded here. For some of these results: Tags and fused reporters may be left off the sequences shown.

“WIP (in vitro system) (from UniProt O43516 1-503)”: the binding entry in assay [1] is reported as “binds”.
“αV‐integrin (construct and source not stated) (from UniProt P06756 31-1048)”: the binding result in assay [2] and in assay [3] was “binds” each time.
As to “N‐WASP (parent of the serially truncated N‐WASP fragments; construct not stated) (from UniProt O00401 1-505)”, the binding entry in assay [4] is recorded as “binds”.
With “Recombinant N‐WASP (from UniProt O00401 1-505)”, in assay [5], the binding result is reported as “binds”.
As to “WASP‐interacting protein (from UniProt O43516 1-503)”, in assay [6], the binding entry is given as “binds”.
Take “neural Wiskott–Aldrich syndrome protein (from UniProt O00401 1-505)”: the binding entry in assay [7] is listed as “binds”.

The record behind these values is publication PMC9631052.
